This passage reports binding results from paper PMC8599806.

Chains of the proteins cited; added tags and fusions are not shown.
UniProt O60934: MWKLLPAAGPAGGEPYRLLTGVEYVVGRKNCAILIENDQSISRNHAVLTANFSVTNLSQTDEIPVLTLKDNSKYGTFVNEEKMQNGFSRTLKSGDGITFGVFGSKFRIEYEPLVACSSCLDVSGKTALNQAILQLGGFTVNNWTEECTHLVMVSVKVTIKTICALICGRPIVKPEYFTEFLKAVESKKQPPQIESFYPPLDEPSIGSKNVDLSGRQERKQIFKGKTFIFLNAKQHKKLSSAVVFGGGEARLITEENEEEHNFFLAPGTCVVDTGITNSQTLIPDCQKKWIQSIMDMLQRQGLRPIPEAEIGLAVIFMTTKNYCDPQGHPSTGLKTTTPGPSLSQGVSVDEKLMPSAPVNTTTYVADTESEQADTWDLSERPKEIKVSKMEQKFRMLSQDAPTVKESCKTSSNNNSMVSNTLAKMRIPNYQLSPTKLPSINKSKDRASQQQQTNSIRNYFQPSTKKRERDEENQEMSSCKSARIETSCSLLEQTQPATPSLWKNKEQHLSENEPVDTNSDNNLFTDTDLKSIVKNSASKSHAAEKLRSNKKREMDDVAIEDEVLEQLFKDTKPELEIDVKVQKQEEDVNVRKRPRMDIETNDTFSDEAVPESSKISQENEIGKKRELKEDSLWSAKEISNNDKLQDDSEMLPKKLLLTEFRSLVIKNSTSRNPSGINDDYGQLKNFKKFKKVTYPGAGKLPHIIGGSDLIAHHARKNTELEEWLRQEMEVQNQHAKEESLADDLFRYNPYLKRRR
UniProt Q92878: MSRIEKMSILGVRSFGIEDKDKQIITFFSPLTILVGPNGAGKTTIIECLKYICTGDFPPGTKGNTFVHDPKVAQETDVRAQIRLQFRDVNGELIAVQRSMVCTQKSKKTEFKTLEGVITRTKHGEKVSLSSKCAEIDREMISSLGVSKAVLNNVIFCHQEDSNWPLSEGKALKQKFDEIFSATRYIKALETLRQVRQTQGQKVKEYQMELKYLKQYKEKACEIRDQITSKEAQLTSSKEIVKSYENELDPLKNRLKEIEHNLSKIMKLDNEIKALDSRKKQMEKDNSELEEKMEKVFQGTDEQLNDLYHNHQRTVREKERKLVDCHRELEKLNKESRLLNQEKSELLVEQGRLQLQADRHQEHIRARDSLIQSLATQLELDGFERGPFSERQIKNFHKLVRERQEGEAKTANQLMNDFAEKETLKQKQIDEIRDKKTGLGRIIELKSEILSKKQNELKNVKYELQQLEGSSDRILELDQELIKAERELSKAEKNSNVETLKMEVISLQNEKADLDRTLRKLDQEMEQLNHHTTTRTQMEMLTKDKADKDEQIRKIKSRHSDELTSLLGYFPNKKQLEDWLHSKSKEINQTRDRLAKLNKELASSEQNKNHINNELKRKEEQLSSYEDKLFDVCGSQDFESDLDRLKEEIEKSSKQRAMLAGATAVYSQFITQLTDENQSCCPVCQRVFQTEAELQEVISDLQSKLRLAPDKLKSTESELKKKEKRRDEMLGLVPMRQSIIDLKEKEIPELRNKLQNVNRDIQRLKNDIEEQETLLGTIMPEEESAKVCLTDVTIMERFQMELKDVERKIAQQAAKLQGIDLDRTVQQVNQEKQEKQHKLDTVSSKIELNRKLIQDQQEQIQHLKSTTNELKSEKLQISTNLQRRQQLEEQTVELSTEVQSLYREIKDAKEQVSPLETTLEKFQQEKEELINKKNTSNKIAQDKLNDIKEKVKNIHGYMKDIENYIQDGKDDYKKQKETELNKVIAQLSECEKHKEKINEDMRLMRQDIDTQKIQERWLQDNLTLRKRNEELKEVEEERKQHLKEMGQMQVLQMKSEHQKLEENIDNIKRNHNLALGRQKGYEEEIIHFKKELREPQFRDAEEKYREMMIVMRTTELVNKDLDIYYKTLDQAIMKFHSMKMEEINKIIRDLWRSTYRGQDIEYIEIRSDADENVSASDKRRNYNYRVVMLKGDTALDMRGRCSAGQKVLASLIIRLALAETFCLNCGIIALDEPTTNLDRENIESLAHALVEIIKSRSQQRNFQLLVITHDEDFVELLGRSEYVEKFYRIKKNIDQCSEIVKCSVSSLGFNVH
UniProt Q06609: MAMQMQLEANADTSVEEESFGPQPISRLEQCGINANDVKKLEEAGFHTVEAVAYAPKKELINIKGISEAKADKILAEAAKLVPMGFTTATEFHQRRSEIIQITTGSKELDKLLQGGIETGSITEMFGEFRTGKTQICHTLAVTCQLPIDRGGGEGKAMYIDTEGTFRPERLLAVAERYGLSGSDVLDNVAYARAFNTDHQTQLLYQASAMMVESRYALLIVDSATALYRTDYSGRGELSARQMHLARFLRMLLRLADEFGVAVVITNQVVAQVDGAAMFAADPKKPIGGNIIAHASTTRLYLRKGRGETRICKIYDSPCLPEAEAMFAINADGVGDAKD
UniProt P46063: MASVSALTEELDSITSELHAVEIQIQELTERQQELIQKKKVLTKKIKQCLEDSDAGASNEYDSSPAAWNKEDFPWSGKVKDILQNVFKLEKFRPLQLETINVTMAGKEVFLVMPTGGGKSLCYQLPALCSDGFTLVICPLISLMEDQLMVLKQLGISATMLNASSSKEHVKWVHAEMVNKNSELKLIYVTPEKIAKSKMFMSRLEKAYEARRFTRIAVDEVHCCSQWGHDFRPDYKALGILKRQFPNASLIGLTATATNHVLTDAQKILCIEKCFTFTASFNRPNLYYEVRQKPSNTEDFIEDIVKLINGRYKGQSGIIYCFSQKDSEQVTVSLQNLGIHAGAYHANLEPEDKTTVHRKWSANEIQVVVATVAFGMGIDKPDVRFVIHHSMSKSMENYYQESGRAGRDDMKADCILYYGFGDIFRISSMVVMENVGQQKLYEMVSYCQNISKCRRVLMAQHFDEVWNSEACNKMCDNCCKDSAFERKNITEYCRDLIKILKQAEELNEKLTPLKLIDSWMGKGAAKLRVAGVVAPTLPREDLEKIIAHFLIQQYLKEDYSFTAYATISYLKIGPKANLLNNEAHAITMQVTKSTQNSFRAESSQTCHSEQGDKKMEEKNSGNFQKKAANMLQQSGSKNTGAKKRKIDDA
UniProt Q99873: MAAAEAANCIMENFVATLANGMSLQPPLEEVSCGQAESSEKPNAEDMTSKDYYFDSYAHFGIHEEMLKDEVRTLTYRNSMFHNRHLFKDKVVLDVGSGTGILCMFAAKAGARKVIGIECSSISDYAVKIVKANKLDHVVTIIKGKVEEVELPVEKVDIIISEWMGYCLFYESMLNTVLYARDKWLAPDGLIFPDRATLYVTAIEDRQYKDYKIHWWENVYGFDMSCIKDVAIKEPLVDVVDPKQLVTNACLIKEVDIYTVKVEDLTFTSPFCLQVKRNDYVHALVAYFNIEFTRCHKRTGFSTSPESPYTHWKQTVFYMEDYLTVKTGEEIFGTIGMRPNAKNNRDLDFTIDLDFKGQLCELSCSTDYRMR

No constants are given. Whether binding was seen depends on the method and setting. Binding seen in cells or lysates may run through a third protein. These calls come from enrichment with a bait or labelling near it, and not all partners need be listed. A no says only that the protein was not detected with the bait. Sequences can lack the tags named with a protein.

In the assay the target is T1, GFP-Flag-tagged ID3 (inhibitor of DNA-binding 3), wild type (human) (UniProt Q02535).
T1 sequence: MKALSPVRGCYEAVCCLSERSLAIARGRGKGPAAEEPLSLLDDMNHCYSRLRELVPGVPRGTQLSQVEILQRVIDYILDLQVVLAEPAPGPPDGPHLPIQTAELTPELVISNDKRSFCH
Put plainly: affinity purification with mass spectrometry; Flag-ID3 immunoprecipitated with anti-Flag magnetic beads from nuclear lysates (benzonase treated, 300 mM NaCl extraction buffer) of ID3-KO U2OS cells expressing GFP-Flag-ID3 or empty vector; untreated, 15 min or 1 h after 10 Gy; on-bead digestion, label-free quantitative mass spectrometry.
With NBS1 (from UniProt O60934 1-754), the binding entry is “binds”.

RAD50 (from UniProt Q92878 1-1312): the binding entry is “binds”.

On to RAD51 (from UniProt Q06609 1-339), for which the binding result is recorded as “no binding”.

As to “RECQL helicase (from UniProt P46063 1-649)”, the binding entry is listed as “binds”.

For the substance PRMT1 (from UniProt Q99873 1-371), the binding result was “binds”.
